Results deposited as PubChem BioAssay AID1259282 (Sanger Institute, 2017)
Purpose: 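siRNA screen across the kinome seeking drug combinations lethal to colorectal cancer cells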 (primary screen). Cell system: DIFI human colorectal cancer cell line. Reagents: siRNA pool against human genes. Treatment: anchor drug at a mild dose (BYL719 1 µM, cetuximab 5 µg/ml, trametinib 10 nM) or DMSO vehicle; exposure time not given. Detection: 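Viability relative to non-targeting pool wells, replicate mean, in DMSO or low-dose BYL719, cetuximab or trametinib; robust z-score without drug; synergy score per drug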. Reading the numbers: robust z-score, knock-down alone: higher = more viable cells than typical knock-down; viability, knock-down alone: higher = more viable cells; synergy score with trametinib and synergy score with cetuximab and synergy score with BYL719: higher = stronger combined killing with drug. Call rule: 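Essential when the robust z-score of the knock-down without drug falls below -3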. Meaning of the calls: active = essential (knock-down alone, z below -3); inactive = not essential.
In all, the deposit lists 794 reagents; this is a part drawn at random. Over the whole deposit, 11 (1.4%) got an active call. 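Calls flag knock-downs that lower viability without drug; drug synergy appears only in the synergy scores; exposure time not stated.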 No viability above 1 is reported: the scale is capped. Not given: the amount of reagent, the time to read-out.

| gene | PubChem SID | robust z-score, knock-down alone | viability, knock-down alone (fraction of control) | synergy score with trametinib | synergy score with cetuximab | synergy score with BYL719 | Outcome |
| --- | --- | --- | --- | --- | --- | --- | --- |
| PIK3C3 | SID134310831 | 0.579 | 0.98 | 0.0714 | -0.0541 | -0.0805 | inactive |
| PI4K2A | SID135621249 | 0.715 | 1 | -0.0567 | -0.0859 | -0.118 | inactive |
| RPS6KA3 | SID152150758 | 0.715 | 1 | 0.0184 | -0.151 | -0.0348 | inactive |
| CAMK1 | SID56478929 | 0.382 | 0.952 | -0.0555 | -0.0283 | -0.0473 | inactive |
| CKS1B | SID56478807 | 0.399 | 0.954 | -0.00699 | 0.0318 | -0.138 | inactive |
| FER | SID152156672 | 0.715 | 1 | 0.002 | -0.0655 | -0.244 | inactive |
| SOX9 | SID134325081 | 0.119 | 0.913 | 0.0334 | -0.00562 | -0.16 | inactive |
| PTK7 | SID135620629 | -2.47 | 0.537 | 0.0676 | 0.105 | 0.00619 | inactive |
| PFKL | SID56479167 | 0.715 | 1 | 0.0176 | -0.0575 | -0.252 | inactive |
| PTPRU | SID152150387 | 0.715 | 1 | 0.186 | 0.063 | 0.01 | inactive |
| DYRK3 | SID152153037 | 0.122 | 0.914 | 0.142 | 0.00953 | -0.0432 | inactive |
| CDK2 | SID56478596 | 0.715 | 1 | 0.091 | 0.0316 | -0.362 | inactive |
| PDGFRL | SID134315029 | 0.715 | 1 | 0.157 | -0.0297 | -0.171 | inactive |
| EFNB3 | SID134315611 | -2.14 | 0.585 | -0.00259 | -0.0349 | 0.0126 | inactive |
| CHKA | SID135621235 | -0.203 | 0.867 | 0.207 | 0.0982 | 0.0748 | inactive |
| MAP3K8 | SID56478664 | 0.372 | 0.95 | 0.0529 | 0.043 | 0.0717 | inactive |
| CUL1 | SID134310265 | 0.715 | 1 | -0.148 | -0.241 | -0.322 | inactive |
| ERN2 | SID135620900 | 0.715 | 1 | -0.21 | -0.0074 | -0.208 | inactive |
| TGFBR1 | SID152153272 | 0.368 | 0.95 | 0.0523 | 0.0316 | -0.229 | inactive |
| KMT2B | SID134314396 | -1.02 | 0.747 | 0.036 | -0.0531 | -0.0386 | inactive |
| MYO3A | SID152148134 | -1.34 | 0.702 | -0.148 | 0.00492 | -0.216 | inactive |
| ATRX | SID152156576 | 0.715 | 1 | -0.204 | -0.195 | -0.242 | inactive |
| ACVR1B | SID56478918 | 0.715 | 1 | -0.0587 | 0.0295 | -0.215 | inactive |
| ALPK2 | SID152151764 | 0.715 | 1 | 0.0923 | -0.0539 | -0.158 | inactive |
| CNOT1 | SID134319414 | -2.22 | 0.573 | 0.19 | 0.109 | 0.212 | inactive |
| N4BP2 | SID152151934 | 0.715 | 1 | -0.165 | -0.208 | -0.208 | inactive |
| RPS6KA2 | SID135620862 | -0.901 | 0.765 | 0.00485 | -0.127 | -0.0917 | inactive |
| TWF1 | SID56478546 | 0.715 | 1 | 0.0511 | 0.0162 | -0.102 | inactive |
| FGFR4 | SID56478514 | 0.715 | 1 | 0.0529 | -0.128 | -0.114 | inactive |
| IKBKB | SID152150353 | 0.333 | 0.945 | 0.216 | 0.072 | 0.0371 | inactive |
| MAPKAPK5 | SID56478947 | 0.715 | 1 | 0.0549 | -0.173 | -0.0223 | inactive |
| PLK2 | SID56478648 | 0.47 | 0.964 | 0.0353 | -0.00264 | -0.0424 | inactive |
| MAP2K3 | SID152148115 | -0.524 | 0.82 | 0.0191 | 0.0704 | 0.116 | inactive |
| KDR | SID56478526 | -1.04 | 0.745 | 0.055 | 0.0258 | -0.151 | inactive |
| MAPK4 | SID152148838 | -0.981 | 0.754 | 0.0603 | -0.0739 | -0.0441 | inactive |
| CDC73 | SID134319235 | -0.514 | 0.822 | -0.0715 | -0.16 | -0.265 | inactive |
| MAP4K5 | SID56478702 | 0.542 | 0.975 | 0.195 | 0.119 | -0.197 | inactive |
| DGUOK | SID152155858 | -2.68 | 0.507 | 0.0365 | -0.035 | -0.0646 | inactive |
| GTF2H1 | SID56479243 | -1.77 | 0.639 | 0.0228 | -0.0672 | 0.0709 | inactive |
| TESK2 | SID135620925 | 0.715 | 1 | -0.414 | -0.137 | -0.353 | inactive |
| KRAS | SID134310727 | -4.08 | 0.303 | 0.0313 | -0.106 | -0.0339 | active |
| MOS | SID56478732 | -0.19 | 0.869 | 0.0281 | 0.0494 | -0.0782 | inactive |
| ALPK3 | SID152152513 | 0.715 | 1 | 0.207 | 0.128 | -0.0448 | inactive |
| HIPK1 | SID135620891 | 0.715 | 1 | -0.186 | -0.192 | -0.362 | inactive |
| COMMD3 | SID152155344 | 0.0848 | 0.908 | 0.144 | 0.0384 | -0.0253 | inactive |
| KALRN | SID134314670 | 0.715 | 1 | 0.233 | 0.137 | -0.00235 | inactive |
| IRAK1 | SID56478862 | -0.439 | 0.832 | 0.113 | 0.107 | -0.0358 | inactive |
| CSNK1G1 | SID152156369 | 0.715 | 1 | 0.0586 | 0.0168 | -0.102 | inactive |
| STK32A | SID152151517 | 0.715 | 1 | -0.0245 | -0.0292 | -0.124 | inactive |
| PCK1 | SID135621257 | -1.63 | 0.659 | -0.126 | -0.193 | -0.149 | inactive |

Sorted by “synergy score with cetuximab” (lowest first): some entries from above.
| gene | PubChem SID | robust z-score, knock-down alone | viability, knock-down alone (fraction of control) | synergy score with trametinib | synergy score with cetuximab | synergy score with BYL719 | Outcome |
| --- | --- | --- | --- | --- | --- | --- | --- |
| TESK2 | SID135620925 | 0.715 | 1 | -0.414 | -0.137 | -0.353 | inactive |
| KRAS | SID134310727 | -4.08 | 0.303 | 0.0313 | -0.106 | -0.0339 | active |
| MOS | SID56478732 | -0.19 | 0.869 | 0.0281 | 0.0494 | -0.0782 | inactive |
| ALPK3 | SID152152513 | 0.715 | 1 | 0.207 | 0.128 | -0.0448 | inactive |
